Assay results published in PubChem BioAssay AID493014 (National Center for Advancing Translational Sciences (NCATS), 2011).
Some of the results follow. Further columns of the screen follow, without active or inactive calls. Most of these compounds were active or inconclusive in the main read-out, so they are no random draw. Potencies come from curve fits of mixed quality, noted in brackets.

Experiment: qHTS Assay to Find Inhibitors of Chronic Active B-Cell Receptor Signaling
Settings: ABC-DLBCL IkBa-CBG/CBR reporter, luminescence ratio (green luciferase fused to IkBa over red control in TMD8 lymphoma cells), 4 h
Summary of the method: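 Concentration-response series (up to 46 uM) were applied to TMD8 dual-reporter cells for 4 h at 37C with doxycycline. Green/red ratio, after filter-overlap correction, defined %Activity; red signal alone was normalised to basal cells and zero luminescence.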

[1] = measured here: CBR red luminescence, cell number
[2] = measured here: IkBa-CBG green luminescence

SMILES | AC50 [1] | AC50 [2]
COc1ccc(C(=O)Nc2ncc3c(n2)CC(C)CC3=O)cc1 (stereo unspecified) | 11.2 µM [falling, partial curve, poor fit] | –
CCOC(=O)c1c(NC(=O)CSc2ccccc2C(=O)O)sc(C)c1C | 35.5 µM [falling, single point] | –
CC[C@H](C)[C@@H](NC(=O)O[C@@H]1C(=O)c2cc(Br)ccc2O[C@H]1c1cccc(OC)c1)C(=O)OC | 2.59 µM [rising, full curve] | –
CS(=O)(=O)N1CCN(c2nc(-c3ccc(F)cc3)cs2)CC1 | 22.4 µM [rising, single point] | –
Cc1ccc2nc(NCc3ccccc3)c(C=NCc3ccccc3)c(=O)n2c1 | 2.06 µM [rising, full curve, poor fit] | –
Oc1ccc(/C=C/c2ccnc3ccccc23)cc1 | 29.1 µM [falling, single point] | –
S=c1[nH]nc(-c2ccccn2)n1/N=C/c1ccco1 | 22.4 µM [falling, single point] | –
COc1ccc(S(=O)(=O)N(Cc2cc3ccc(OC)cc3[nH]c2=O)CC2COCCO2)cc1 (stereo unspecified) | 14.1 µM [rising, partial curve] | –
O=C(c1cc(COc2ccc(F)cc2Cl)on1)N1CCc2sccc2C1 | 11.2 µM [rising, partial curve, poor fit] | –
CCCc1ccc(-c2csc(NC(=O)Cc3cccs3)n2)cc1 | 3.66 µM [rising, partial curve] | –
C=CC[n+]1c(C)csc1Nc1cccc(Br)c1 | 20 µM [rising, single point] | –
CC(C)(C)c1ccc(C(=O)O/N=C(\N)c2ccccc2)cc1 | 3.55 µM [rising, full curve] | –
COc1ccc(/C=C2\SC(=S)N(CCC(=O)NCCCN3CCOCC3)C2=O)cc1 | 7.08 µM [falling, partial curve] | –
COc1ccccc1C(=O)COC(=O)c1ccc(N(C)C)cc1 | 14.1 µM [falling, partial curve] | –
Cc1cccc(Nc2c(F)c(F)c(F)c(F)c2C(=O)O)c1 | 17.8 µM [rising, single point] | –
COc1ccc(NS(=O)(=O)c2cc(C)ccc2OC)cc1OC | 14.6 µM [rising, partial curve, poor fit] | –
Cc1ccc(NC(=O)c2ccco2)cc1NC(=O)CSc1nnc(-c2cccs2)n1C | 20.6 µM [falling, single point] | –
CCN(CC)S(=O)(=O)c1cc(NC(=O)NCCCl)ccc1C | 12.6 µM [rising, partial curve, poor fit] | –
COC(C(=O)NNC(=O)Cc1ccc(Cl)cc1)c1ccccc1 (stereo unspecified) | 11.2 µM [falling, partial curve, poor fit] | –
CCCn1c(SCC(=O)Nc2ccccc2Oc2ccccc2)n[nH]c1=O | 20.6 µM [falling, single point] | –
O=C(C1CCN(C2CCN(Cc3ccc4cc(F)ccc4n3)CC2)CC1)N1CCCC1 | 35.5 µM [falling, single point] | –

SMILES | AC50 [1] | AC50 [2]
CCCOc1ccc(/C=N/NC(=O)c2ccc3c(c2)OCO3)c(OCCC)c1 | 5.62 µM [falling, full curve] | –
CCCC(=O)Nc1cccc(NC(=O)c2cccc([N+](=O)[O-])c2C)c1 | 4.61 µM [rising, single point] | –
COC(=O)CSc1nccc(-c2ccc(F)cc2)c1C#N | 10 µM [rising, partial curve, poor fit] | –
CC(=O)N1c2ccccc2C(=O)C1N(C)c1ccc(C)cc1 (stereo unspecified) | 2.24 µM [rising, partial curve, poor fit] | –
Cc1ccccc1C(=O)NNC(=O)c1ccc(Br)cc1 | 3.98 µM [falling, full curve] | –
CC(=O)Nc1ccc(NC(=O)C(C)Oc2ccc(C)nc2[N+](=O)[O-])cc1 (stereo unspecified) | 18.4 µM [rising, single point] | –
Cc1cc(C(=O)NNC(=O)/C=C/c2ccccc2Cl)c(C)o1 | 3.16 µM [falling, full curve] | –
COC(=O)c1ccc(Nc2cc(C)nc3nc(C)nn23)cc1 | 5.17 µM [falling, partial curve, poor fit] | –
O=C(NCc1ccc2c(c1)OCO2)Nc1ccc2ccccc2c1 | 10 µM [falling, partial curve, poor fit] | –
O=C(NC1CCCCC1)c1ccc(CNc2ccccc2)o1 | 4.47 µM [falling, partial curve] | –
N#CCSc1ccccc1NC(=O)COC(=O)Cc1c[nH]c2ccccc12 | 0.116 µM [falling, full curve, poor fit] | –
CCOc1ccc(NC(=O)CSc2nc(C)cc(C)n2)cc1 | 14.6 µM [rising, partial curve, poor fit] | –
Cc1cc(/C=C2\Sc3ccccc3N2C)cc(C)[n+]1CC1CCCO1 (stereo unspecified) | 3.55 µM [falling, full curve, poor fit] | –
CCOc1ccc(-n2c(SCC(=O)Nc3ccccc3C)n[nH]c2=O)cc1 | 25.1 µM [falling, single point] | –
CCCCCC(=O)N=Nc1c(O)[nH]c2ccc([N+](=O)[O-])cc12 | 7.31 µM [rising, partial curve, poor fit] | –
Cc1c(/C=N/N2C(=O)C3C4C=CC(C4)C3C2=O)c2ccccc2n1C (stereo unspecified) | 4.61 µM [rising, full curve, poor fit] | –
CCCCn1c(N)c(N(CC(C)C)C(=O)c2cc(-c3ccc(F)cc3)nc3ccccc23)c(=O)[nH]c1=O | 29.1 µM [rising, single point] | –
CC1OC(Oc2c(-c3cc(O)c(O)c(O)c3)oc3cc(O)cc(O)c3c2=O)C(O)C(O)C1O (stereo unspecified) | 35.5 µM [rising, single point] | –
C=CCOc1c(Cl)cc(C(=S)N2CCCC2)cc1OCC | 28.2 µM [rising, single point] | 35.5 µM [falling, partial curve, poor fit]
Oc1c(C=Nc2ccc(Cl)cn2)sc2ccccc12 | 5.62 µM [rising, single point] | –
Cc1ccc(S(=O)(=O)N(CC(=O)N2CCN(c3ccccc3F)CC2)C2CCCCC2)cc1 | 2.31 µM [falling, partial curve, poor fit] | –

Reformatted field by field: part of the list above
COc1ccccc1C(=O)COC(=O)c1ccc(N(C)C)cc1
  AC50 [1]: 14.1 µM [falling, partial curve]
O=C(C1CCN(C2CCN(Cc3ccc4cc(F)ccc4n3)CC2)CC1)N1CCCC1
  AC50 [1]: 35.5 µM [falling, single point]
COC(=O)CSc1nccc(-c2ccc(F)cc2)c1C#N
  AC50 [1]: 10 µM [rising, partial curve, poor fit]
N#CCSc1ccccc1NC(=O)COC(=O)Cc1c[nH]c2ccccc12
  AC50 [1]: 0.116 µM [falling, full curve, poor fit]

(listing goes on)

SMILES | AC50 [1] | AC50 [2]
COc1cc(/C=C/c2ccc3cccc(O)c3n2)cc(Br)c1OC | 0.1 µM [rising, full curve, poor fit] | 3.16 µM [falling, full curve, poor fit]
CCOC(=O)c1ccc(NC(=O)N2CCN(CCc3ccccc3)CC2)cc1 | 29.1 µM [rising, single point] | –
Cc1ccc(-c2nnc(CSc3nnc(COc4ccccc4)n3-c3ccccc3)o2)cc1 | 22.4 µM [falling, single point] | –
Cc1ccc(C(=O)CSc2cnc3ccccc3n2)cc1C | 5.17 µM [falling, full curve] | –
O=C(Nc1ccc(N2CCCC2)c(Cl)c1)c1ccc([N+](=O)[O-])o1 | 0.794 µM [rising, full curve, poor fit] | –
O=C(C[C@H]1C/C=C\CC[C@@H](Cc2ccc(F)cc2)C(=O)OCCNC1=O)NCCO | 3.26 µM [falling, single point] | –
O=C(O)c1ccc2[nH]c3c(c2c1)CCCC3 | 28.2 µM [falling, single point] | 0.891 µM [rising, full curve, poor fit]
NS(=O)(=O)c1ccc(NC(=O)CN2CCN(Cc3ccccc3)CC2)cc1 | 20.6 µM [falling, partial curve] | 18.4 µM [rising, partial curve, poor fit]
CC(=O)C1=C(C)NC(SCc2ccc(C#N)cc2)=C(C#N)C1c1ccco1 (stereo unspecified) | 0.184 µM [rising, full curve, poor fit] | –
Cc1cc(N2CCN(C)CC2)nc2ccc(NC(=O)c3ccc4c(c3)OCO4)cc12 | 18.4 µM [falling, partial curve] | –
O=C(Nc1cc2ccc(O)cc2oc1=O)c1ccc(F)cc1 | 0.631 µM [falling, full curve, poor fit] | –
COc1ccc(C2CC(c3cccs3)=NN2c2nc(C)c(C(C)=O)s2)cc1OC (stereo unspecified) | – | 1.58 µM [falling, partial curve, poor fit]
Cn1c(C(=O)N2CCCC(C(=O)NCc3cccs3)C2)cc2sccc21 (stereo unspecified) | 0.103 µM [rising, full curve, poor fit] | –
COc1cccc(Nc2sc(C(=O)c3ccc(F)cc3)c(N)c2C(=O)NCc2ccc(C)cc2)c1 | – | 35.5 µM [falling, partial curve, poor fit]
C/C(=N/Nc1ncc(Br)cn1)c1ccc([N+](=O)[O-])cc1 | 1.12 µM [rising, full curve, poor fit] | –
COc1ccc(C(=O)OCC[N+]2(C)CCCCC2)cc1 | 0.1 µM [falling, full curve, poor fit] | –
O=C(C[C@H]1C(=O)N(c2ccc(F)c(F)c2)C[C@@H]1Cc1ccccc1)Nc1ccccc1 | 14.1 µM [falling, single point] | –
CCOC(=O)c1c(-c2ccc(C)o2)csc1NC(=O)COC(=O)c1ccc(NC(N)=O)cc1 | 9.2 µM [falling, partial curve, poor fit] | –
CC(C)(C)C(=O)Nc1nnc(SCC(=O)NC2CCCCC2)s1 | 17.8 µM [falling, single point] | –
COc1ccc(NC(=O)CSc2c3c(nc4ccccc24)CCC3)c(OC)c1 | 29.1 µM [falling, partial curve, poor fit] | –

Part of the list above in order of molar mass, largest number first.
SMILES | AC50 [1] | AC50 [2]
Cc1ccc(-c2nnc(CSc3nnc(COc4ccccc4)n3-c3ccccc3)o2)cc1 | 22.4 µM [falling, single point] | –
O=C(Nc1ccc(N2CCCC2)c(Cl)c1)c1ccc([N+](=O)[O-])o1 | 0.794 µM [rising, full curve, poor fit] | –
O=C(O)c1ccc2[nH]c3c(c2c1)CCCC3 | 28.2 µM [falling, single point] | 0.891 µM [rising, full curve, poor fit]
